Measured values from the supplement of paper PMC4840960.
This is one part of the list. Plates or batches differ in their baseline, so values are only roughly comparable.

Tested on: E18 rat cortical neuron-glia co-culture
Assay: total nuclei (DAPI) / Olig2+ nuclei (ratio); higher = more depletion of OPC/OL lineage cells
Settings: 1 µM; treatment time: 8 days (DIV5-DIV13)
Procedure: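 Primary E18 rat cortical co-cultures (neurons, astrocytes, OPC/OLs) in 96-well plates. NIH Clinical Collection compounds were added on DIV5 in myelination medium at 5 and 1 µM for 8 days, then cells were fixed on DIV13 and stained for MBP, Olig2 and DAPI. Myelination (contiguous aligned MBP fiber length per Olig2+ nucleus) was normalised to plate controls (0.1% DMSO = 0, 1 µM DAPT = 100) as % of DAPT. Each value is from duplicate wells with 4 image fields each. Fiber length/MBP is the fiber score divided by the MBP differentiation score; DAPI/Olig2 is the ratio of total to Olig2+ nuclei.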

Row | SMILES | total nuclei
1 | CCOc1cc(N)c(Cl)cc1C(=O)NCC1CN(Cc2ccc(F)cc2)CCO1 (stereo not given) [Mosapride] | 3.91
2 | CC(=O)N1CCN(c2ccc(OCC3COC(Cn4ccnc4)(c4ccc(Cl)cc4Cl)O3)cc2)CC1 (stereo not given) [Ketoconazole] | 4.53
3 | CCCc1nc2c(C)cc(-c3nc4ccccc4n3C)cc2n1Cc1ccc(-c2ccccc2C(=O)O)cc1 [Telmisartan] | 3.2
4 | O=c1c(-c2ccccc2)c1-c1ccccc1 [Diphenylcyclopropenone] | 5.1
5 | CC(C)/N=c1\cc2n(-c3ccc(Cl)cc3)c3ccccc3nc-2cc1Nc1ccc(Cl)cc1 [Clofazimine] | 4.2
6 | CN(Cc1cnc2nc(N)nc(N)c2n1)c1ccc(C(=O)N[C@@H](CCC(=O)O)C(=O)O)cc1 [Methotrexate] | 23.4
7 | O=C(C1CCCCC1)N1CC(=O)N2CCc3ccccc3C2C1 (stereo not given) [Praziquantel] | 4.41
8 | CN1[C@@H](CC(=O)c2ccccc2)CCC[C@H]1C[C@H](O)c1ccccc1 [Lobeline] | 2.71
9 | CCN(CC)CCNC(=O)c1ccc(N)cc1 [Procainamide] | 2.7
10 | N[C@@H](Cc1cc(I)c(Oc2ccc(O)c(I)c2)c(I)c1)C(=O)O [Triiodothyronine] | 3.34
11 | Brc1c(NC2=NCCN2)ccc2nccnc12 [Brimonidine] | 2.71
12 | CC(C)(S)[C@@H](N)C(=O)O [Penicillamine] | 4.11
13 | COc1ccc(CC2c3cc(OC)c(OC)cc3CC[N+]2(C)CCC(=O)OCCCCCOC(=O)CC[N+]2(C)CCc3cc(OC)c(OC)cc3C2Cc2ccc(OC)c(OC)c2)cc1OC (stereo not given) [Atracurium] | 4.4
14 | Cc1ccc(Cl)c(Nc2ccccc2C(=O)O)c1Cl [Meclofenamic acid] | 2.5
15 | COc1cc(C[C@@H](CO)[C@H](CO)Cc2ccc(O)c(OC)c2)ccc1O [Secoisolariciresinol] | 2.64
16 | OC(c1cc(C(F)(F)F)nc2c(C(F)(F)F)cccc12)C1CCCCN1 (stereo not given) [Mefloquine] | 3.46
17 | O=C1[C@H]2CCCC[C@H]2C(=O)N1CCCCN1CCN(c2nsc3ccccc23)CC1 [Perospirone] | 4.05
18 | N[C@@H](C(=O)N[C@@H]1C(=O)N2C(C(=O)O)=C(CSc3c[nH]nn3)CS[C@H]12)c1ccc(O)cc1 [Cefatrizine] | 4.4
19 | CN(C)CCN(Cc1ccccc1)c1ccccn1 [Tripelennamine] | 4.85
20 | CC(=O)OCC(=O)NCCCOc1cccc(CN2CCCCC2)c1 [Roxatidine acetate] | 2.62

Same assay, conditions: 5 µM; treatment time: 8 days (DIV5-DIV13)

Row | SMILES | total nuclei
21 | CCOc1cc(N)c(Cl)cc1C(=O)NCC1CN(Cc2ccc(F)cc2)CCO1 (stereo not given) [Mosapride] | 3.8
22 | CC(=O)N1CCN(c2ccc(OCC3COC(Cn4ccnc4)(c4ccc(Cl)cc4Cl)O3)cc2)CC1 (stereo not given) [Ketoconazole] | 5.7
23 | CCCc1nc2c(C)cc(-c3nc4ccccc4n3C)cc2n1Cc1ccc(-c2ccccc2C(=O)O)cc1 [Telmisartan] | 4.5
24 | O=c1c(-c2ccccc2)c1-c1ccccc1 [Diphenylcyclopropenone] | > 40
25 | CC(C)/N=c1\cc2n(-c3ccc(Cl)cc3)c3ccccc3nc-2cc1Nc1ccc(Cl)cc1 [Clofazimine] | 4.5
26 | CN(Cc1cnc2nc(N)nc(N)c2n1)c1ccc(C(=O)N[C@@H](CCC(=O)O)C(=O)O)cc1 [Methotrexate] | 27.7
27 | O=C(C1CCCCC1)N1CC(=O)N2CCc3ccccc3C2C1 (stereo not given) [Praziquantel] | 4.6
28 | CN1[C@@H](CC(=O)c2ccccc2)CCC[C@H]1C[C@H](O)c1ccccc1 [Lobeline] | 2.8
29 | CCN(CC)CCNC(=O)c1ccc(N)cc1 [Procainamide] | 2.8
30 | N[C@@H](Cc1cc(I)c(Oc2ccc(O)c(I)c2)c(I)c1)C(=O)O [Triiodothyronine] | 4.4
31 | Brc1c(NC2=NCCN2)ccc2nccnc12 [Brimonidine] | 3.1
32 | CC(C)(S)[C@@H](N)C(=O)O [Penicillamine] | 4.3
33 | COc1ccc(CC2c3cc(OC)c(OC)cc3CC[N+]2(C)CCC(=O)OCCCCCOC(=O)CC[N+]2(C)CCc3cc(OC)c(OC)cc3C2Cc2ccc(OC)c(OC)c2)cc1OC (stereo not given) [Atracurium] | 8.3
34 | Cc1ccc(Cl)c(Nc2ccccc2C(=O)O)c1Cl [Meclofenamic acid] | 2.5
35 | COc1cc(C[C@@H](CO)[C@H](CO)Cc2ccc(O)c(OC)c2)ccc1O [Secoisolariciresinol] | 2.7
36 | OC(c1cc(C(F)(F)F)nc2c(C(F)(F)F)cccc12)C1CCCCN1 (stereo not given) [Mefloquine] | 3.6
37 | O=C1[C@H]2CCCC[C@H]2C(=O)N1CCCCN1CCN(c2nsc3ccccc23)CC1 [Perospirone] | 5
38 | N[C@@H](C(=O)N[C@@H]1C(=O)N2C(C(=O)O)=C(CSc3c[nH]nn3)CS[C@H]12)c1ccc(O)cc1 [Cefatrizine] | 4.5
39 | CN(C)CCN(Cc1ccccc1)c1ccccn1 [Tripelennamine] | 4.6
40 | CC(=O)OCC(=O)NCCCOc1cccc(CN2CCCCC2)c1 [Roxatidine acetate] | 2.7
